{"source": "patent US20220056135A1", "key": {"[1]": {"molecular_target": "PD-1 on Jurkat cells (PD-1+ CD47+ Jurkat cells; Jurkat stably expressing PD-1) (UniProt Q15116)", "experiment": "flow cytometry on Jurkat cells, 4.5 nM, anti IgG-PE; ratio of the median fluorescence on PD-1+CD47+ cells over that on CD47+ cells"}, "[2]": {"molecular_target": "recombinant hPD1 (Sino Biologicals, reference 10377-H08H) (human) (UniProt Q15116)", "experiment": "ELISA on immobilised recombinant human PD-1, anti-human Fc peroxidase (FIG. 1A, humanized)"}, "[3]": {"molecular_target": "recombinant hPD1 (Sino Biologicals, reference 10377-H08H) (human) (UniProt Q15116)", "experiment": "ELISA, human recombinant PD-1 immobilised, detection with anti-human Fc-peroxidase, TMB"}, "[4]": {"molecular_target": "recombinant hPD1 (Sino Biologicals, reference 10377-H08H) (human) (UniProt Q15116)", "experiment": "ELISA on immobilised recombinant human PD-1, anti-human Fc peroxidase (FIG. 1B, humanized)"}}, "note": "These are yes or no findings as the source states them, for the method shown. Some binding calls cover weakened binding; strength is not graded here."}
{"substance": "Bicki anti-PD1VH-SIRPa, humanized (VH SEQ ID NO: 24, VL SEQ ID NO: 28) (from UniProt P78324 31-373)", "values": [{"measurement": "binding", "setting": "[1]", "result": "binds"}]}
{"substance": "anti-PD1VH-SIRPa antibody, humanized (VH SEQ ID NO: 18, VL SEQ ID NO: 28), SIRPa fused to the heavy chain (from UniProt P78324 31-373)", "values": [{"measurement": "binding", "setting": "[2]", "result": "binds"}, {"measurement": "binding", "setting": "[3]", "result": "binds"}]}
{"substance": "anti-PD1VL-SIRPa antibody, humanized (VH SEQ ID NO: 18, VL SEQ ID NO: 28), SIRPa fused to the light chain (from UniProt P78324 31-373)", "values": [{"measurement": "binding", "setting": "[3]", "result": "binds"}, {"measurement": "binding", "setting": "[4]", "result": "binds"}]}
